Data taken from ChEMBL document CHEMBL3988442, “University of Dundee, Small-Polar-MMV Screening Library” (2021).

Values are the deposited “Percent Effect”, in %.
The controls that fix the scale are not given in the record; negative values are as filed.
Compounds were drawn at random from those tested, without regard to their results.
Two or more numbers in one place are separate tests of the same structure; such repeats can differ widely.

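Viability assay of Plasmodium falciparum sporozoites; the read-out is not stated. The concentration is filed as 10 mM, unlikely as a test dose, so the dose is not known. Direction is inferred from retests: higher values go with lower viability. Strong results were mostly tested again. About 34,000 compounds were tested under these conditions; 0.84% (about 280) showed 50% or more at least once.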

compound,percent effect
FC(F)(F)c1ccc(CN2CCN(Cc3cscn3)CC2)cc1,-2.676
CCc1ccc(C(=O)N2CCCC(n3cncn3)C2)o1 (configuration not stated),1.568
Cc1noc(C2CCN(C(=O)c3ccc(C(F)(F)F)nc3)CC2)n1,-7.444
CC(C)CCN1C2(CCN(C(=O)CN(C)C)C2)c2ccccc2S1(=O)=O.O=C(O)C(F)(F)F (configuration not stated),7.589
O=C1C(NCc2nnc3n2CCCC3)CCN1CC(F)(F)F (configuration not stated),-1.127
Cc1nc(CN2CCN(C(=O)c3sccc3C)CC2)cs1,1.054
CC(C)c1nnc2n1CC(CNCc1nnc(C(C)(C)C)o1)CC2 (configuration not stated),-2.477
CNC(=O)C1CCN(C(=O)NCc2ccc(C)n2C)CC1,-2.286
CCOc1ccnc(N2CCN(C(=O)c3ccoc3)CC2)n1,-20.92
O=C(CNCC1(O)CCCN(Cc2cccc(F)c2F)C1=O)NC1CC1 (configuration not stated),6.036
COc1ccc(C(C)=O)c(OCC(=O)NC(C)c2ccc(F)cc2)c1 (configuration not stated),-11.53
CCS(=O)(=O)c1ncc(CN(C)Cc2ccccc2OC)n1CCOC,3.421
Cl.Cl.O=C(NCc1cncc2c1CCN(Cc1cccc(F)c1)C2)C1CC1,9.074
CNC(=O)c1ccc(C(=O)N2CCCC(n3ccnc3C)C2)cn1 (configuration not stated),7.838
CCN(Cc1cnn(C)c1)C(=O)c1ccccc1O,-2.971
[H][C@@]12CN(C(=O)c3ccoc3COc3ccc(C)cc3)C[C@]1([H])[C@H]2CN(C)C,-0.7785
CC(C)c1cc(NC(=O)CNC2CCCN(c3cccnn3)C2)on1 (configuration not stated),5.348
O=S(=O)(NCC1CCN(c2cnccn2)CC1)c1c(F)cccc1F,2.346
O=S1(=O)c2cccnc2OC(Cc2ccccc2)CN1CC1CC1 (configuration not stated),14.45
Cc1noc(CN(C)Cc2ccc3c(c2)OCO3)n1,28.27 and 7.263 and 0.1206
CCc1nc2n(n1)CC(NCC(=O)Nc1cc(C)on1)CC2 (configuration not stated),9.457
CN1[C@H](CO)C[C@H](CNCc2ccc(CO)o2)[C@@H]1c1ccccc1F,4.57
CCC(C)N(CCOC)Cc1nc2c(cnn2C)c(=O)[nH]1 (configuration not stated),7.652
Cc1noc(C)c1C(=O)N(C)Cc1nc(-c2ccccn2)no1,-6.223
O=C(O)c1nnn(-c2ccc(C(F)(F)F)cc2)c1-c1ccncc1,2.634
CC(O)CN(CC(=O)NC(=O)NC1CC1)c1ccccc1 (configuration not stated),-8.324
CN(C)CCn1c2c(ccc1=O)CCN(C(=O)c1ccoc1)CC2.O=C(O)C(F)(F)F,10.26
COc1cccc(C(=O)N2CCc3ncnc(C)c3CC2)c1,3.648
CCOCCCNC(=O)Cc1cccs1,9.665
O=C(O)C(F)(F)F.O=C(O)C(F)(F)F.[H][C@@]12CCN(Cc3ccncc3)CC[C@@]1([H])N(S(C)(=O)=O)CCO2,-1.733
[H][C@@]12CCCCN(C)[C@]1([H])[C@@H](c1ccccc1)CCN2C(=O)c1ccccc1,-14.1
CNC(=O)c1cccc(NC(=O)CN2CCN(S(C)(=O)=O)CC2)c1,-15.92
Cc1cc(CCC(N)=O)cc(C2CCCN2Cc2cnc(C)nc2)n1 (configuration not stated),18.48
CCc1cc(C(=O)N2CCC(c3cc4ncccc4cn3)CC2)no1,17.01
O=C(CCC1CC1)N1C[C@@H](CN2CCCC2)[C@@H](CO)C1,4.798
O=C(O)C(F)(F)F.[H][C@@]12CCN(c3ccc(C)nn3)C[C@]1([H])O[C@@H](C(=O)NCc1ccco1)C2,4.047
CC(O)CNCc1ccccc1C(F)(F)F.Cl (configuration not stated),-5.005
CN(C)c1cc(CNC(=O)c2ccccc2Cl)ccn1,5.404
O=C(O)C(F)(F)F.O=C1COC2(COCCN(Cc3ccsc3)C2)CN1c1ccc(F)cc1 (configuration not stated),-17.56
Cc1ccsc1CN(Cc1ccccn1)CC(C)C,-0.224
CCN(C(C)=O)c1nc(CN2CCCCC2Cn2cncn2)cs1 (configuration not stated),20.49
Cc1cc(N(C)C)nc(N2CCCC2c2cccnc2)n1 (configuration not stated),-26.24 and -27.16
CCc1nccn1C1CCCN(C(=O)c2cn3cccnc3n2)C1 (configuration not stated),0.32
O=C(Cn1cnc(-c2ccccc2)cc1=O)Nc1ccncc1,-1.899
CCc1ccc(C(=O)N(CC)Cc2ccoc2)cc1S(C)(=O)=O,-13.49
COc1ncccc1C(=O)NC1CCOc2ccccc21 (configuration not stated),-23.31
CN(Cc1ncc(C(C)(C)C)o1)C1CCCN(c2cccnn2)C1 (configuration not stated),6.003
Cn1nnc2cc(C(=O)NS(=O)(=O)Cc3ccc(F)cc3)ccc21,-10.57
CC(C)NC(=O)COc1nc(C(C)(C)C)no1,0.5882
CCn1cc(NC(=O)NCC(c2ccc(OC)cc2)N(C)C)cn1 (configuration not stated),43.93 and 35.12 and 56.29
Cc1cc(C)nc(C2CCN(c3ccncn3)C2)n1 (configuration not stated),2.435
COc1ccc(CN2CCC(c3nccnc3-n3ccnc3)CC2)cc1,8.33
CN1CCOC(C(=O)Nc2ccc3c(c2)nc(C2CC2)n3C)C1 (configuration not stated),-13.44 and -13.85
Cc1nc(CN2CCCC(NCc3cccc4ccccc34)C2)no1 (configuration not stated),14.12
CCC(C(=O)NCc1ccncc1)N(c1cccc(C)c1)S(C)(=O)=O (configuration not stated),0.6438
O=C(O)C(F)(F)F.O=C(O)C(F)(F)F.O=C(O)C(F)(F)F.O=C(c1ccncc1)N1CCN(Cc2cccnc2)c2ncccc2C1,21.42
CNC(=O)CCc1cc(C)nc(C2CCN(C3CCCCC3)CC2)c1,-0.1942
O=C(O)C(F)(F)F.O=C([C@H]1CCCO1)N1CCCC2(COCCN(c3ccccc3)C2)C1 (some centres not stated),5.394
CN(Cc1ccccc1)CC(O)Cn1cnc2ccc(Br)cc2c1=O (configuration not stated),10.19
CN(C)C(C(=O)NCCS(=O)(=O)N(C)C)c1cccc(F)c1 (configuration not stated),2.719
Cc1cc(CNCc2c(C)nn(C)c2N2CCOCC2)no1,-21.84 and -18.86 and 0.9893
Cc1cc(NS(=O)(=O)c2ccc(Cl)s2)ccc1-n1cccc1C(=O)O,-11.27
CCNc1cc2c(nn1)CCN(C(=O)c1ccc(NC3CC3)nc1)C2,0.4946
Cn1cc(C2CCCN2C(=O)CCCOc2ccccc2F)cn1 (configuration not stated),10.53
O=C(O)C(F)(F)F.[H][C@@]12CN(Cc3ccc(F)cc3)C[C@]1([H])[C@@H]2CC(=O)N1CCCC1,3.251
O=C(O)C(F)(F)F.O=C(O)C(F)(F)F.O=C(O)C(F)(F)F.[H][C@]12C[C@H](C(=O)N3CCN(C)CC3)N(C)[C@@]1([H])CN(c1ncc(C)cn1)C2,-0.3552
COCCN1CCC(c2nc3c([nH]2)CCCNC3=O)CC1,-18
[H][C@]12C[C@H](C(=O)NC)N(C)[C@@]1([H])CN(C(=O)c1ccncc1F)C2,-9.966
COCc1cnc2n1CCN(Cc1cccnc1)C2C.O=C(O)C(F)(F)F.O=C(O)C(F)(F)F (configuration not stated),-10.28
[H][C@]12CC[C@@]3(N=C(C)N(CC(C)C)C3=O)[C@@]1([H])CN(S(=O)(=O)C1CC1)C2,15.32
COc1ccccc1C(=O)N(C)Cc1ncc(C)c(OC)c1C,-13.64
[H][C@@]12C[C@H](C(=O)N(C)C)[C@@]([H])(CN(c3ncc(C)cn3)C1)O2,4.221
CCOCC1CN(Cc2cccs2)Cc2nn(C)cc21.O=C(O)C(F)(F)F (configuration not stated),-19.95
O=C(c1ccc(-n2cccn2)c(F)c1)N1CCCN2CCCC2C1 (configuration not stated),-11.6
COC1CCN(C(=O)Nc2cc(C(F)(F)F)c[nH]c2=O)CC1,2.421
CC(C(=O)NCc1ccnc(N2CCN(C)CC2)c1)S(C)(=O)=O (configuration not stated),-0.9599
CCC(=O)N1CCC1c1cc(NC2CCCC2)nc(C)n1 (configuration not stated),4.264
CC(C)CN1CCC2(C1)CN(S(=O)(=O)c1cn(C)cn1)C2.O=C(O)C(F)(F)F.O=C(O)C(F)(F)F,7.089
CNc1nc(C(=O)N2CCCC(c3nccn3CC3CCC3)C2)cs1 (configuration not stated),-18.54
CCn1nc(CC(C)C)cc1C(=O)N1CCCOC(CN2CCCC2)C1 (configuration not stated),1.302
CC(C)n1cc2cc(NC(=O)Cn3cnnn3)ccc2n1,-9.236
CC(C)c1nnc(CN2CCCC2Cn2cncn2)o1 (configuration not stated),14.23
Cc1ncsc1CN1Cc2cn(C)nc2C(COCC2CC2)C1.O=C(O)C(F)(F)F.O=C(O)C(F)(F)F (configuration not stated),6.229
Cc1ccsc1[C@@H]1CCN(C(=O)CCC(=O)N2CCCCCC2)C[C@H]1O,-2.688
O=C(O)C(F)(F)F.[H][C@@]12CCCO[C@]1([H])[C@H](N(C)C)CN2C(=O)CCc1ccccc1,-4.553

The last 10 entries again:

compound,percent effect
CC(C(=O)NCc1ccnc(N2CCN(C)CC2)c1)S(C)(=O)=O (configuration not stated),-0.9599
CCC(=O)N1CCC1c1cc(NC2CCCC2)nc(C)n1 (configuration not stated),4.264
CC(C)CN1CCC2(C1)CN(S(=O)(=O)c1cn(C)cn1)C2.O=C(O)C(F)(F)F.O=C(O)C(F)(F)F,7.089
CNc1nc(C(=O)N2CCCC(c3nccn3CC3CCC3)C2)cs1 (configuration not stated),-18.54
CCn1nc(CC(C)C)cc1C(=O)N1CCCOC(CN2CCCC2)C1 (configuration not stated),1.302
CC(C)n1cc2cc(NC(=O)Cn3cnnn3)ccc2n1,-9.236
CC(C)c1nnc(CN2CCCC2Cn2cncn2)o1 (configuration not stated),14.23
Cc1ncsc1CN1Cc2cn(C)nc2C(COCC2CC2)C1.O=C(O)C(F)(F)F.O=C(O)C(F)(F)F (configuration not stated),6.229
Cc1ccsc1[C@@H]1CCN(C(=O)CCC(=O)N2CCCCCC2)C[C@H]1O,-2.688
O=C(O)C(F)(F)F.[H][C@@]12CCCO[C@]1([H])[C@H](N(C)C)CN2C(=O)CCc1ccccc1,-4.553